These results are taken from the supplement of paper PMC12889115.

The subject of the assay is Salmonella enterica serovar Typhimurium SL1344. In words: bacterial growth OD600 after 18 h with compound and polymyxin B; higher = more bacterial growth (less inhibition). The note with it: 50 µM, Mueller-Hinton broth.

Molecules are shown by their SMILES. The list shows a part of the results. Values are raw readings; no control value is given beside them.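 First-pass screen: polymyxin B was added at a level that permeabilizes the Salmonella outer membrane while sparing the inner membrane. DMSO wells, with and without polymyxin B, defined maximum growth. Because plates differed from one another, each plate's data were ranked separately and the compounds with the lowest OD600 were carried forward as hits.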

For `O=C(Nc1ccc(-c2nc3ccccc3o2)cc1)C1CCN(Cc2ccc(O)cc2)CC1`, the “bacterial growth OD600” value (polymyxin B 1 µg/mL) was 1.03.

In the case of `COc1cc(N2C[C@H]3OC(=O)N(CCc4cccc(Cl)c4)[C@H]3C2)ncn1`, the “bacterial growth OD600” value (polymyxin B 0.75 µg/mL) was determined as 0.801.

Regarding `COCCN(C)C(=O)c1coc(COc2cccc(F)c2F)n1`, the “bacterial growth OD600” value (polymyxin B 1 µg/mL) amounted to 0.984.

As to `CN(C(=O)CCn1cncn1)C1CCCN(CCc2ccccc2)C1` (stereo unspecified), the “bacterial growth OD600” value (polymyxin B 1 µg/mL) worked out at 0.88.

Regarding `COc1ccc(C(=O)NC2CC2)c(OC2CCN(Cc3ccc(C)cc3)CC2)c1`, the “bacterial growth OD600” value (polymyxin B 1 µg/mL) turned out to be 1.04.

`COC(=O)c1ccccc1C(=O)N1CCCC(Nc2ccc(F)cc2)C1` (stereo unspecified): the “bacterial growth OD600” value (polymyxin B 1 µg/mL) is 0.999.

On to `COc1ccccc1CCN1CCCC(CN(C)C(=O)C(=O)CC(C)C)C1` (stereo unspecified), for which the “bacterial growth OD600” value (polymyxin B 1 µg/mL) turned out to be 0.846.

As for `CCOCCCNC(=O)C1CCCN1c1nc(C)c2ccc(S(C)(=O)=O)cc2n1` (stereo unspecified), the “bacterial growth OD600” value (polymyxin B 0.75 µg/mL) came out at 0.809.

Turning to `CCOc1ccc2nc(N3CCCC(C(=O)N4CCN(Cc5nccn5C)CC4)C3)nc(C)c2c1` (stereo unspecified), under “polymyxin B 0.75 µg/mL”, the “bacterial growth OD600” value came to 0.443.

As to `O=C(NCc1cccnc1-n1ccnc1)c1ncoc1C1CC1`, under “polymyxin B 0.75 µg/mL”, the “bacterial growth OD600” value was determined as 0.845.

Consider `COc1ccccc1Oc1ncccc1CNC(=O)c1ccc(C)s1`, for which the “bacterial growth OD600” value (polymyxin B 1 µg/mL) stood at 0.917.

On to `COCCNC(=O)c1ccc(OC)cc1OC1CCN(C/C(C)=C/c2ccco2)CC1`, for which the “bacterial growth OD600” value (polymyxin B 1 µg/mL) is 0.992.

Consider `CCc1ccc(CN2CCC(N3CCC(C(=O)NCCc4ccccc4)CC3)CC2)o1`, for which the “bacterial growth OD600” value (polymyxin B 0.75 µg/mL) came to 0.741.

On to `Cc1[nH]c2c(C(=O)N3CCC4(CC3)CC4C(=O)N3CCN(c4ccccn4)CC3)cccc2c1C` (stereo unspecified), for which, where the note is “polymyxin B 0.75 µg/mL”, the “bacterial growth OD600” value is 0.791.

In the case of `O=C1CC(NC2CCSCC2)CN1C1CCCCCC1` (stereo unspecified), where the note is “polymyxin B 1 µg/mL”, the “bacterial growth OD600” value worked out at 1.05.

As to `CCN1CC(CN(C)C(=O)c2cc(COc3ccc4sc(C)nc4c3)on2)CC1=O` (stereo unspecified), the “bacterial growth OD600” value (polymyxin B 1 µg/mL) amounted to 0.927.

For `O=C(NC1CC1)C1CCCN(C2CCN(Cc3cccc(F)c3)CC2)C1` (stereo unspecified), the “bacterial growth OD600” value (polymyxin B 0.75 µg/mL) stood at 0.794.

On to `CCCN1CCC(NC2CC(=O)N(Cc3ccccc3C(F)(F)F)C2)CC1` (stereo unspecified), for which, under “polymyxin B 1 µg/mL”, the “bacterial growth OD600” value came out at 0.879.

Regarding `COc1cc(OC)cc(C(=O)NCC2CCCN(C(=O)C3=CCCC3)C2)c1` (stereo unspecified), the “bacterial growth OD600” value (polymyxin B 1 µg/mL) was determined as 0.838.

Regarding `Cn1c(C2CCC2)nc2cc(C(=O)N3CCc4c(Cl)cccc4C3)cc(NC(=O)C3CCCO3)c21` (stereo unspecified), where the note is “polymyxin B 0.75 µg/mL”, the “bacterial growth OD600” value came to 0.757.

On to `CC(C)c1ccc(CN2CCCC3(CCN(C(=O)C4CCOCC4)C3)C2)cc1` (stereo unspecified), for which, for the setting “polymyxin B 1 µg/mL”, the “bacterial growth OD600” value amounted to 0.925.

Take `COc1ccc2cc(-c3n[nH]cc3CN3CCC(c4ccncc4)CC3)ccc2c1`: the “bacterial growth OD600” value (polymyxin B 1 µg/mL) was 0.696.

On to `CN(Cc1cc(C2CC2)[nH]n1)C(=O)c1cc(COc2cccc(F)c2)[nH]n1`, for which the “bacterial growth OD600” value (polymyxin B 1 µg/mL) was 1.04.

Turning to `COc1ccc(C(=O)N2CCCC2)c(OC2CCN(CCCC(F)(F)F)CC2)c1`, the “bacterial growth OD600” value (polymyxin B 1 µg/mL) amounted to 1.15.

For `O=C(Nc1ccc(-c2ccco2)cc1)C1CCCN(Cc2cccc3c2OCO3)C1` (stereo unspecified), the “bacterial growth OD600” value (polymyxin B 1 µg/mL) was found to be 0.776.

Take `CC(=O)Nc1cnn(-c2ccc(C(=O)N3CCC(c4ccccc4Cl)C3)cc2)c1` (stereo unspecified): the “bacterial growth OD600” value (polymyxin B 0.75 µg/mL) stood at 0.004.

`COc1ccc(-c2ccccc2NC(=O)C2CCCN2CC2CC2)cc1` (stereo unspecified): the “bacterial growth OD600” value (polymyxin B 1 µg/mL) was found to be 0.238.

On to `CCOC(=O)C1(CCOc2ccccc2)CCN(Cc2cccs2)CC1`, for which, under “polymyxin B 1 µg/mL”, the “bacterial growth OD600” value was found to be 0.793.

Turning to `COc1cc(-c2nc(CN(CCO)CC34CC5CC(CC(C5)C3)C4)c(C)o2)ccc1F`, for the setting “polymyxin B 1 µg/mL”, the “bacterial growth OD600” value came out at 0.684.

`CCC(=O)N1CCC2(CCCN(Cc3ccc(F)c(F)c3)C2=O)C1` (stereo unspecified): the “bacterial growth OD600” value (polymyxin B 1 µg/mL) was 0.972.

In the case of `Cc1ccc(C)c(C(=O)N2CCC(C3(Cc4cccc(F)c4)NC(=O)N(CCN(C)C)C3=O)CC2)c1` (stereo unspecified), the “bacterial growth OD600” value (polymyxin B 0.75 µg/mL) is 0.908.
